Laboratory results as given in patent US20190322720A1.
These are yes or no findings as the source states them, for the method shown. Some entries that bind do so weakly or less than the wild type.

Chains of the proteins cited; added tags and fusions are not shown. Lines headed by an entry give the natural chain unless they say otherwise; changes in a name come on top.
UniProt P13688: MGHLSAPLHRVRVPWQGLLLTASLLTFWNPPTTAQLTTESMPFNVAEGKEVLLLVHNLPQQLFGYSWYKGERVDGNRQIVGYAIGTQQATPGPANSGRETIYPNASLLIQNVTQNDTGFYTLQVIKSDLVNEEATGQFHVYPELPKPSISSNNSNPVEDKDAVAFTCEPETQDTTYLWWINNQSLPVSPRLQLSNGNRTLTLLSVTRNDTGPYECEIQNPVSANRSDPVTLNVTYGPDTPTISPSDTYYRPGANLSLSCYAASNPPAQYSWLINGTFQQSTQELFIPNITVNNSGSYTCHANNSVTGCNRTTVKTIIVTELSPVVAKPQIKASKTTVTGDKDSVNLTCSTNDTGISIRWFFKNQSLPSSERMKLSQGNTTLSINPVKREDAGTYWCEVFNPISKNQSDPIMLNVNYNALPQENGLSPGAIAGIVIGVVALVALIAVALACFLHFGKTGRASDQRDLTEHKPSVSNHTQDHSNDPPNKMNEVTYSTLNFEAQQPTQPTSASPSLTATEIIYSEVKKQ
UniProt P31997: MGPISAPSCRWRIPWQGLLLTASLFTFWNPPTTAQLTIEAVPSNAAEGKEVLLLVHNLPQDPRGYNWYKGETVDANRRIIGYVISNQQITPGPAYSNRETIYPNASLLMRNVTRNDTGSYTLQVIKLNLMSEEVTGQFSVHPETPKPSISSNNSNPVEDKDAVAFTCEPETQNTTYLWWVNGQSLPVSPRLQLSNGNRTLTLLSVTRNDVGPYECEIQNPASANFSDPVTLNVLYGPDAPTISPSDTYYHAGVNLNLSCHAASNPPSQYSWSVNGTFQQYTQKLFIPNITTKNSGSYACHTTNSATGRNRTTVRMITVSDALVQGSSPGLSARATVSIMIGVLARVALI
UniProt P40199: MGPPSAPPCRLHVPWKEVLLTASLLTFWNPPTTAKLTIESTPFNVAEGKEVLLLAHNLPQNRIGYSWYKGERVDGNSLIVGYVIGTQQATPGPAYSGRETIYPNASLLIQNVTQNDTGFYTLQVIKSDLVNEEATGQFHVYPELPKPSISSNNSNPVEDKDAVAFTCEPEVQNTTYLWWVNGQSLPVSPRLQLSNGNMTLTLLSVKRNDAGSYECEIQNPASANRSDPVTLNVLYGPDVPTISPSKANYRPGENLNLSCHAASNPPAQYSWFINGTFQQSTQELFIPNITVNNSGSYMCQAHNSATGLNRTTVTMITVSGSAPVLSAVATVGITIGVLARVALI

Tests used:
[1] = target: CEACAM1 conversion mutant 300His→Gln, 302Asn→His (Homo sapiens (Human)) (UniProt P13688); assay: conversion mutagenesis
[2] = target: CEACAM8 conversion mutant 300 His→Gln, 301Thr→Ala, 302Thr→His (Homo sapiens (Human)) (UniProt P31997); assay: conversion mutagenesis
[3] = target: CEACAM6 residues 34-320 (human) (UniProt P40199); assay: binding to expressed truncation construct
[4] = target: CEACAM6 residues 201-319 (human) (UniProt P40199); assay: binding to expressed truncation construct
[5] = target: CEACAM6 residues 34-321 (human) (UniProt P40199); assay: binding to expressed truncation construct
[6] = target: CEACAM6 residues 34-319 (human) (UniProt P40199); assay: binding to expressed truncation construct
[7] = target: CEACAM6 residues 34-317 (human) (UniProt P40199); assay: binding to expressed truncation construct
[8] = target: CEACAM6 residues 34-311 (human) (UniProt P40199); assay: binding to expressed truncation construct
[9] = target: CEACAM6 residues 34-315 (human) (UniProt P40199); assay: binding to expressed truncation construct
[10] = target: CEACAM6 residues 149-319 (human) (UniProt P40199); assay: binding to expressed truncation construct
[11] = target: CEACAM6 residues 34-326 (human) (UniProt P40199); assay: binding to expressed truncation construct
[12] = target: CEACAM6 residues 34-313 (human) (UniProt P40199); assay: binding to expressed truncation construct
[13] = target: CEACAM6 residues 191-319 (human) (UniProt P40199); assay: binding to expressed truncation construct

Measured: binding

B1: 16C3 antibody (antibody, V domains shown)
VL: LMTQSPASLSASVGETVTITCGASENIYGALNWYQRKQGKSPQLLIYGASNLADGMSSRFSGSGSGRQYSLKISSLHPDDVATYYCQNVLSSPYTFGGGTKLEIKK
V domain: LEESGPEVVRPGVSVKISCKGSGYTFTDYAMHWVKQSHAKSLEWIGLISTYSGDTKYNQNFKGKATMTVDKSSNTAYMELARLTSEDSAIYYCARGDYSGSRYWFAYWGQGTTVTR
binds: all assays above
